Reference: PubChem BioAssay AID330 (DTP/NCI, 2004)
The list is a part of this screen's results and no random one: it gathers some chemical classes. Other doses and runs of a compound may be missing. T/C is the treated group as % of the vehicle group. Where survival is the endpoint, this PubChem deposit counts one and a half times the control or more as active, and values a quarter to a half above the control carry no call in these data; other NCI protocols may use other cut-offs. Schedule codes are those of the source, read here as Q, the interval in days (D) or hours (H), X, the number of doses. Some T/C values are marked as having no survivor count here; that says nothing about deaths at the dose. Some doses were run more than once; the results are listed from low to high.

System: P388 leukemia ip, CD2F1 mice, survival T/C
Experiment: NCI In Vivo Anticancer Drug Screen. Data for tumor model P388 Leukemia (intraperitoneal) in CD2F1 (CDF1) mice
Conditions: T/C endpoint: median survival time, higher T/C = longer survival
[1] = dose: 2.5 mg/kg/injection, schedule: Q01DX009 (ip), vehicle: saline + alcohol

CC1CCOC(=O)/C=C/C=C/C(=O)OC2CC3OC4C5OC5(CO)CCC4(COC(=O)C1O)C2(C)C31CO1 (stereo unspecified)
T/C (dose: 0.12 mg/kg/injection, schedule: Q01DX009 (ip), vehicle: saline + alcohol): 160 % of control [survivor count not shown] | T/C (dose: 0.25 mg/kg/injection, schedule: Q01DX009 (ip), vehicle: saline + alcohol): 169 % of control [survivor count not shown] | T/C (dose: 0.5 mg/kg/injection, schedule: Q01DX009 (ip), vehicle: saline + alcohol): 150 % of control [survivor count not shown] | T/C (dose: 1.0 mg/kg/injection, schedule: Q01DX009 (ip), vehicle: saline + alcohol): 160 % of control [survivor count not shown] | T/C (dose: 2.0 mg/kg/injection, schedule: Q01DX009 (ip), vehicle: saline + alcohol): 160 % of control [survivor count not shown] | T/C (dose: 4.0 mg/kg/injection, schedule: Q01DX009 (ip), vehicle: saline + alcohol): 157 % of control [survivor count not shown] | T/C (dose: 8.0 mg/kg/injection, schedule: Q01DX009 (ip), vehicle: saline + alcohol): 203 % of control [survivor count not shown]

CC(O)C1/C=C/C=C/C(=O)OC2CC3OC4C=C(CO)CCC4(COC(=O)C(O)C(C)CCO1)C2(C)C31CO1 (stereo unspecified)
T/C (dose: 0.08 mg/kg/injection, schedule: Q01DX009 (ip), vehicle: saline + alcohol): 137 % of control [survivor count not shown] | T/C (dose: 0.16 mg/kg/injection, schedule: Q01DX009 (ip), vehicle: saline + alcohol, evaluated on day 30): 141 % of control [survivor count not shown] | T/C (dose: 0.16 mg/kg/injection, schedule: Q01DX009 (ip), vehicle: saline + alcohol, evaluated on day 45): 185 % of control [survivor count not shown] | T/C (dose: 0.31 mg/kg/injection, schedule: Q01DX009 (ip), vehicle: saline + alcohol, evaluated on day 30): 159 % of control [survivor count not shown] | T/C (dose: 0.31 mg/kg/injection, schedule: Q01DX009 (ip), vehicle: saline + alcohol, evaluated on day 45): 240 % of control [survivor count not shown] | T/C (dose: 0.62 mg/kg/injection, schedule: Q01DX009 (ip), vehicle: saline + alcohol, evaluated on day 30): 206 % of control [survivor count not shown] | T/C (dose: 0.62 mg/kg/injection, schedule: Q01DX009 (ip), vehicle: saline + alcohol, evaluated on day 45): 212 % of control [survivor count not shown] | T/C (dose: 1.25 mg/kg/injection, schedule: Q01DX009 (ip), vehicle: saline + alcohol, evaluated on day 30): 258 % of control [survivor count not shown] | T/C (dose: 1.25 mg/kg/injection, schedule: Q01DX009 (ip), vehicle: saline + alcohol, evaluated on day 45): 166 % of control [survivor count not shown] | T/C [1]: 87 % of control [survivor count not shown]

CC1=C[C@H]2O[C@@H]3C[C@H]4OC(=O)/C=C\C=C\C5OC(C/C(C)=C\C(=O)OCC2(CC1)[C@]4(C)[C@]31CO1)OC5C (stereo partly specified)
T/C (dose: 0.78 mg/kg/injection, schedule: Q01DX009 (ip), vehicle: saline with Tween-80): 112 % of control [survivor count not shown] | T/C (dose: 1.56 mg/kg/injection, schedule: Q01DX009 (ip), vehicle: saline with Tween-80): 109 % of control [survivor count not shown] | T/C (dose: 3.13 mg/kg/injection, schedule: Q01DX009 (ip), vehicle: saline with Tween-80): 115 % of control [survivor count not shown] | T/C (dose: 6.25 mg/kg/injection, schedule: Q01DX009 (ip), vehicle: saline with Tween-80): 122 % of control [survivor count not shown] | T/C (dose: 12.5 mg/kg/injection, schedule: Q01DX009 (ip), vehicle: saline with Tween-80): 131 % of control [survivor count not shown]

C[C@H](O)[C@H]1/C=C/C=C\C(=O)O[C@@H]2C[C@H]3O[C@@H]4[C@@H]5O[C@]5(C)CCC4(COC(=O)[C@H]4O[C@]4(C)[C@@H](O)CO1)[C@]2(C)[C@]31CO1 (stereo partly specified)
T/C (dose: 0.15 mg/kg/injection, schedule: Q01DX009 (ip), vehicle: saline + alcohol): 160 % of control [survivor count not shown] | T/C (dose: 0.31 mg/kg/injection, schedule: Q01DX009 (ip), vehicle: saline + alcohol): 160 [survivor count not shown] and 179 % of control [survivor count not shown] | T/C (dose: 0.62 mg/kg/injection, schedule: Q01DX009 (ip), vehicle: other): 151 % of control [survivor count not shown] | T/C (dose: 0.62 mg/kg/injection, schedule: Q01DX009 (ip), vehicle: saline + alcohol): 159 [survivor count not shown], 163 [survivor count not shown], 207 % of control [survivor count not shown] | T/C (dose: 1.25 mg/kg/injection, schedule: Q01DX009 (ip), vehicle: other): 225 % of control [survivor count not shown] | T/C (dose: 1.25 mg/kg/injection, schedule: Q01DX009 (ip), vehicle: saline + alcohol): 156 [survivor count not shown], 169 [survivor count not shown], 188 % of control [survivor count not shown] | T/C (dose: 2.5 mg/kg/injection, schedule: Q01DX009 (ip), vehicle: other): 177 % of control [survivor count not shown] | T/C [1]: 226 [survivor count not shown] and 233 % of control [survivor count not shown] | T/C (dose: 5.0 mg/kg/injection, schedule: Q01DX009 (ip), vehicle: other): 239 % of control [survivor count not shown] | T/C (dose: 5.0 mg/kg/injection, schedule: Q01DX009 (ip), vehicle: saline + alcohol): 107 [survivor count not shown] and 233 % of control [survivor count not shown] | T/C (dose: 10.0 mg/kg/injection, schedule: Q01DX009 (ip), vehicle: saline + alcohol): 86 % of control [survivor count not shown]

CC(=O)OCC12CCC(C)=CC1OC1C(OC3CCCCO3)C(OC(C)=O)C2(C)C12CO2 (stereo unspecified)
T/C (dose: 0.2 mg/kg/injection, schedule: Q01DX009 (ip), vehicle: other): 100 % of control [survivor count not shown] | T/C (dose: 0.4 mg/kg/injection, schedule: Q01DX009 (ip), vehicle: other): 102 % of control [survivor count not shown] | T/C (dose: 0.8 mg/kg/injection, schedule: Q01DX009 (ip), vehicle: other): 102 % of control [survivor count not shown] | T/C (dose: 1.6 mg/kg/injection, schedule: Q01DX009 (ip), vehicle: other): 101 % of control [survivor count not shown] | T/C (dose: 3.2 mg/kg/injection, schedule: Q01DX009 (ip), vehicle: other): 117 % of control [survivor count not shown]

CC1=CC2O[C@@H]3C[C@H]4OC(=O)CCCCC(C(C)O)OCC(O)C5(C)OC5C(=O)OCC2(C[C@H]1O)[C@]4(C)[C@@]31CO1 (stereo partly specified)
T/C (dose: 0.62 mg/kg/injection, schedule: Q01DX005 (ip), vehicle: saline with Tween-80): 123 % of control [survivor count not shown] | T/C (dose: 1.25 mg/kg/injection, schedule: Q01DX005 (ip), vehicle: Klucel (hydroxypropylcellulose) (HPC)): 133 % of control [survivor count not shown] | T/C (dose: 1.25 mg/kg/injection, schedule: Q01DX005 (ip), vehicle: saline with Tween-80): 132 % of control [survivor count not shown] | T/C (dose: 2.5 mg/kg/injection, schedule: Q01DX005 (ip), vehicle: Klucel (hydroxypropylcellulose) (HPC)): 129 % of control [survivor count not shown] | T/C (dose: 2.5 mg/kg/injection, schedule: Q01DX005 (ip), vehicle: saline with Tween-80): 150 % of control [survivor count not shown] | T/C (dose: 5.0 mg/kg/injection, schedule: Q01DX005 (ip), vehicle: Klucel (hydroxypropylcellulose) (HPC)): 153 % of control [survivor count not shown] | T/C (dose: 5.0 mg/kg/injection, schedule: Q01DX005 (ip), vehicle: saline with Tween-80): 155 % of control [survivor count not shown] | T/C (dose: 10.0 mg/kg/injection, schedule: Q01DX005 (ip), vehicle: Klucel (hydroxypropylcellulose) (HPC)): 135 % of control [survivor count not shown] | T/C (dose: 10.0 mg/kg/injection, schedule: Q01DX005 (ip), vehicle: saline with Tween-80): 175 % of control [survivor count not shown]

CC(=O)OC1C(=O)OCC23CCC4(C)OC4C2OC2CC(OC(=O)/C=C/C=C/C(=O)OCCC1C)C3(C)C21CO1 (stereo unspecified)
T/C (dose: 1.25 mg/kg/injection, schedule: Q01DX009 (ip), vehicle: saline with Tween-80): 149 % of control [survivor count not shown] | T/C (dose: 2.5 mg/kg/injection, schedule: Q01DX009 (ip), vehicle: saline with Tween-80): 142 % of control [survivor count not shown] | T/C (dose: 5.0 mg/kg/injection, schedule: Q01DX009 (ip), vehicle: saline with Tween-80): 166 % of control [survivor count not shown] | T/C (dose: 10.0 mg/kg/injection, schedule: Q01DX009 (ip), vehicle: saline with Tween-80): 166 % of control [survivor count not shown]
